Our source for the median seed-adjusted z-score values is PubChem BioAssay AID1347426 (Functional Genomics Laboratory (NCATS/FGL), 2020).

Screen size: about 31,000 sequences; about 1,400 (4.5%) were called active.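 How the source made its calls: active means median seed-adjusted z-score above 1 or below -1; inactive means the rest.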 This is one part of the list.

The nature of this assay: Novel Modifiers of Survival Motor Neuron (SMN) Protein: Gene Identification via Genome-wide siRNA Screen. The following applies: HEK293T SMN2-luciferase reporter, siRNA knockdown, 72 h; actives lie on both sides. An excerpt:
Spinal muscular atrophy (SMA) is the most common neuromuscular autosomal recessive disorder and one of the leading genetic causes of infant death. SMA results from mutations inducing loss of function or deletion in the survival of motor neuron-1 gene (SMN1), leading to deficiency of the survival motor neuron (SMN) protein. Although a second nearly identical gene, SMN2, is retained in humans, its expression primarily produces an aberrantly spliced isoform that is largely unstable and quickly degraded. We performed a genome-wide RNAi screen using a cell-based reporter assay to identify genes and pathways that modulate SMN protein stability. The screen identified over 200 genes that led to the greatest increase or decrease in luciferase expression.
Using HEK293T cells stably expressing a luciferase reporter that combines the promoter and splicing based cassettes in tandem with the major portion of the native SMN2 cDNA with luciferase, we performed a genome-wide RNAi screen to identify modulators of SMN protein levels. Luciferase is expressed when full-length SMN protein is generated with luminescence signal proportional to SMN protein levels. Our luciferase-based reporter assay was used to screen Ambion Silencer Select Human Druggable Genome siRNA library (10418 genes, 3 unique siRNAs per gene) using lipid-based reverse transfection.
Briefly, 1 pmol of each siRNA was spotted to a well of a 384-well plate (Corning, Corning, NY) and 20 microL of serum-free DMEM containing […] of Lipofectamine RNAiMax (Life Technologies, Carlsbad, CA) was then added to each well. Transfected cells were maintained at 37 degrees C in 5% CO2 for 72 hours, 20 microL of ONE-Glo Reagent (Promega) was added to wells for luciferase quantification. Raw luminescence reads were normalized to Ambion(R) Silencer(R) Negative Control #2 siRNA, then log10 transformed. A robust statistical measure of median absolute deviation (MAD) to standardize siRNA activities from each screen. Common Seed Analysis was used to help prioritize clean hits as opposed to those appearing to arise from seed based off-target effects. Candidate modulators were defined as the genes having a MAD score greater than 1.0 or less than -1.0.
On to GAGAGUAUAUUGACUAUGATT against XRN1, for which the median seed-adjusted z-score is inactive: 0.522. With CUUAACCUGUGGAAUCGAATT against NIPA2 the figure was inactive: -0.103. Regarding CCACAGCAGGUGUCAUAUATT against NGFR, the median seed-adjusted z-score was inactive: -0.0846.

GAAUCUUUACAGGACUAUATT against CDC2: the median seed-adjusted z-score was inactive: 0.424.

For the sequence GGCUGAGCUUUAGAAAGCUTT against LENG9, the median seed-adjusted z-score was inactive: 0.607.

GAACAGUGUCGAGAACAAATT against SLAMF1: the median seed-adjusted z-score was inactive: -0.104. To GCCUAGACUUCAAUAAGAATT against PPP2R2A belongs inactive: -0.596.

As to CACUGGUUAUAAAUCUUCATT against CADM3, the median seed-adjusted z-score is inactive: 0.

Consider GAAUCGUUGUUGUUAUGCATT against RASA1, for which the median seed-adjusted z-score is inactive: -0.398. With CUCCAUAACUGAUCCAGGATT against ZDHHC21 the figure was inactive: 0.216; with GGAAGAUAUGCAAGCAGAATT against RNF112, inactive: -0.42. With CCCACGAUCUCAAAAAGAUTT against PC the figure was inactive: 0.2; with CCUAAAUGGUCGCAAAGUATT against PABPC3, inactive: -0.314; with CUUGGGACCUCCAAACUUATT against RAD52, inactive: -0.737. As to GCCUCUCAACGUGAAAGUUTT against KRT2, the median seed-adjusted z-score was inactive: -0.451.

Turning to GCUUGGAGGAUUUCAUGGATT against POFUT1, the median seed-adjusted z-score was inactive: 0. With CCCUAGGCCUUUUACGAAATT against RAG1 the figure was active: -1.35; with CCAUAUAGAGAUACUCAAATT against HIF1A, inactive: 0.228; with CAAAGACAGCCGCCCAGAATT against APOC2, inactive: -0.0599. With CCCACUACAUGUUCCUGUUTT against ABHD9 the figure was inactive: 0.486; with GGAUCCAGCUUUUCCUCGATT against ABCC10, active: -1.56; with CUACGUGUCGGGAAGUACATT against DHCR24, inactive: 0.493. Turning to GUUUGACCAUGUAACCGUATT against DIS3L, the median seed-adjusted z-score is inactive: 0.

AGUACUACAUGGAUCUCAATT against PURA: the median seed-adjusted z-score was inactive: -0.0185. To GCUACUUACAGGUACCGUATT against PDCD11 belongs inactive: -0.335. To CAUCUGAUCCGGGAAAUCATT against GALNT14 belongs inactive: 0; to GAUUUGAUGUCGUCUUUAATT against PTGR1, inactive: 0; to GAGAGAUUUCGGUCCAUUATT against RAB30, inactive: 0.395. On to CAGUCAAUGUCGAUAGUAATT against ARID4B, for which the median seed-adjusted z-score was inactive: 0.211. As for GGAAGAAUACAACAAGGAATT against CUX1, the median seed-adjusted z-score was inactive: -0.527. To GGUGAAGACCUAUCGAAGATT against IL13RA2 belongs inactive: 0.113; to GCUCGGAAUUUUUAUGAGATT against UPF2, inactive: -0.376. To GGAACCUGGAGAUAUCAUUTT against FUT8 belongs inactive: 0.464; to GUCAAAUACCAAUGCUUUATT against CERK, inactive: 0; to CAGUCUCCCUUUAUACCAATT against TEC, inactive: 0.258. With CGACUACGAUGGAAACAUUTT against EXOSC8 the figure was inactive: 0.203; with CUGUAUAUCUUGUACGGCATT against PIAS2, inactive: -0.096. Regarding GCUCCUUUUACUCCGCCUATT against FN3KRP, the median seed-adjusted z-score was inactive: 0.00247. To GCAACUCCAUGUAAAACCATT against ZNF114 belongs inactive: -0.303. To GAACUUGGGUGGAUAGCAATT against EPHA4 belongs inactive: -0.0739. With GAAUCAACUCUGAACGGAATT against CBL the figure was inactive: -0.417; with GCCUAGUCUGUGAUCCUGUTT against 2-Mar, inactive: 0.335; with CCAUGACCUUUAACAACCATT against HIPK2, inactive: 0.156. With CAAUGAAGACCUUUUCUAATT against MS4A10, the median seed-adjusted z-score is inactive: -0.24. On to GGUGCUUCAUUUUAGUCAUTT against SERPINB11, for which the median seed-adjusted z-score is inactive: 0. For GCAGAUGUAUAAGAAGGCATT against RRM2, the median seed-adjusted z-score was active: -3.84. On to CGUGACCAGUACGAGCAGATT against KRT16, for which the median seed-adjusted z-score is inactive: -0.233.

On to GAAAAGGACUGAAUCGCCATT against DLX4, for which the median seed-adjusted z-score was inactive: -0.0473.

On to GAAGAGUGGUACUACCAGATT against BACE2, for which the median seed-adjusted z-score is inactive: 0.0853. Turning to GAGUAGCUAUGGUCAACAATT against EWSR1, the median seed-adjusted z-score was inactive: -0.654. To CAGUACAGGUUGAGUCAAATT against LRRFIP1 belongs inactive: -0.181; to CAGCUGCAGUAUCUCGGAATT against EHMT1, inactive: 0.00857.

Turning to GCAGGACCUCGUCAUCGAATT against ZNF296, the median seed-adjusted z-score is inactive: -0.00618.

With GGUGCCUCUUGUAUCCCUATT against CRABP1, the median seed-adjusted z-score was inactive: -0.625. On to GAGUGGACAUUGCUGGAUATT against ZNF700, for which the median seed-adjusted z-score is inactive: 0. With CCUCCAGGGAAUUACAAGATT against FGF1 the figure was inactive: 0.415. With CAGUAUCACUUGCUGAACATT against ALOX12 the figure was inactive: -0.247; with CAGUGAAUCUUGGUUGUAATT against TBP, active: -1.25. For the sequence ACGGAACCUUGAACAGAGATT against CIB1, the median seed-adjusted z-score is inactive: 0.14. With GAAUGCAUCUGUUCUUCUATT against VN1R1 the figure was inactive: 0.531; with GACUGUCGUCCGAAACAUATT against PGLYRP3, inactive: -0.671; with GCCCAACAAGUGCAUGUUUTT against GLIS1, inactive: 0.838. With GGAUGACCUCGAUGAUGAATT against DPF2 the figure was inactive: 0.373. To AUAUCUGAGUAAUUGGUUUTT against SIP1 belongs inactive: -0.443; to CUACAAGACAGGCAAUCUATT against IFI30, inactive: 0.401. With CAAGGUUCCUGCACCUAAATT against CLASP2, the median seed-adjusted z-score was inactive: 0.157. With CACACAUCGAAGCUCAGAATT against PDLIM7 the figure was inactive: 0.548; with GCGGUAACCUGGUACAAGATT against IL18RAP, inactive: -0.681.

As to GCAGAUAUCGUACCCAAAATT against PPID, the median seed-adjusted z-score is inactive: -0.206. Regarding GAUCCCAACUGUUUCGUUUTT against AKAP10, the median seed-adjusted z-score was inactive: 0.0689.

On to CAUCCGCUCCAAGUUCAAATT against AP2A1, for which the median seed-adjusted z-score was inactive: 0.559. With GAUAAGUUAUCAAGUCGUATT against AFF4 the figure was inactive: -0.0637; with CAUUGAGCGUGGACUGGUATT against ACTRT1, inactive: 0. To GAAACGUGAUGGAGAGUAATT against ZNF212 belongs inactive: 0.863; to GAAUCUAUGAGAUGAACAATT against LDB2, inactive: -0.0847. To CAGGGAGACUGGUGAGAAATT against ZNF565 belongs inactive: 0.457. Regarding CGACCUCUUCAACAGCAAUTT against CEBPD, the median seed-adjusted z-score was inactive: -0.101. As to CUAUCUCACCAAGAUCUAUTT against PODN, the median seed-adjusted z-score was inactive: 0.589. To ACAGAUAUAUUCACUCCAATT against OSR1 belongs inactive: -0.185. With CGCUAUGUCUUGUUAUCAATT against PREP the figure was inactive: 0.0883; with CGAGCAGAAUUACUACCGGTT against FOXC2, inactive: -0.792; with CUUAAUUCUUGGUCUAUGATT against SP6, inactive: -0.176.

Take GGAUCCGAAAGAACAAUAATT against SELP: the median seed-adjusted z-score was inactive: -0.879. Take GAACUAUGCCGAUCAGAUUTT against MAPK8IP3: the median seed-adjusted z-score was inactive: 0.734. To GGCCUACGCUCAGAAUCAUTT against FUK belongs inactive: -0.0381.

As for CUCUAUCAUUACUCCAAGATT against SULT2B1, the median seed-adjusted z-score is inactive: 0. To AGACAGAGCUACGACAUCATT against CARM1 belongs inactive: 0.317; to GGAAGUUAUUUAGAGAUAUTT against ZNF419, inactive: 0.0405; to UCAGGAUUGUUUCUCGGCATT against HSD11B2, inactive: 0.215. To CCCACGAAGAGAAGUCUUATT against ZNF498 belongs inactive: -0.476. To CGAAGACUGCCUCAAGUGUTT against LMO1 belongs inactive: 0.104; to CAGUUAUGAUUGGUGGAGATT against CDC42, inactive: -0.0938; to GCCGCUUUGAGGACCAGUATT against RASD2, inactive: 0.0673. Take GGCUUUUUCUAAUCAGGCATT against MSC: the median seed-adjusted z-score is inactive: -0.208. With GCCUAGCUCUCUUCACGUATT against NEO1 the figure was inactive: 0.16; with CAACCACACCUCAACAAAATT against FGD4, inactive: -0.0017; with GGAUCUCGCUGGAAGUCCATT against SOX13, inactive: 0.867.

For CUGUAAGACGUGUCCCUAUTT against GRM4, the median seed-adjusted z-score is inactive: -0.71.

As for CCAUAGAUGGGACUCCUAATT against PAPOLG, the median seed-adjusted z-score was inactive: 0.0674. With CUGUCUACAUCGUCCAAGATT against EFNB1 the figure was inactive: -0.448; with GACUCAAGUAUAGAUUAAATT against LBR, inactive: 0.303; with UUACAGACCUGAGCACUUATT against BAHD1, inactive: 0.376. With GGCUCCUACGCAUCAAGAATT against USH1C the figure was inactive: -0.164. To GCAUCCAUGAAACAACUUATT against ACTC1 belongs inactive: 0; to GCUCGUCGGUGUUCUGCAATT against RPH3AL, inactive: 0.21; to CAAAUUUCCUGUUAAUCGATT against APPL1, inactive: 0. CCAGUGCCCUUAUAAGAGATT against WFDC12: the median seed-adjusted z-score is inactive: 0. Consider CAAGGAAGCAGGUAUGUGATT against SRA1, for which the median seed-adjusted z-score is inactive: 0.677.
